According to patent US4558060A, “Benzoxazolinones” (Riom Laboratories - Cerm S.A., priority 1982, dated 1985):
At least one compound was matched to its structure with a doubt left.

Test system: mice
Test: Hypnotic activity (sleep induction time, sleep time)
Format: in vivo
Conditions: 12.5 mg.kg^-1, intraperitoneal
Procedure: The acute toxicity and central nervous system activity of the compounds of the invention were investigated in mice using various test-models. These tests were carried out in accordance with the procedures summarised below.
Mice receive, by intraperitoneal administration, 0.25 ml per 20 g of body weight of a solution consisting of arabic gum and of 0.154M NaCl solution (1/2-1/2) containing 12.5 mg.kg.^-1 of the compound to be studied, and the "sleep induction time"--the time taken for the loss of righting reflex to appear after the animal has been placed in the dorsal decubitus position--and the "sleep time"--the duration of the above loss of reflex--are then noted. For this test, pentobarbital is given as a reference, administered at a dose of 50 mg.kg.^-1.

COc1ccccc1N1CCN(CCc2ccc3[nH]c(=O)oc3c2)CC1 [Compound 10, 6-(2-[4-(2-methoxyphenyl)-piperazin-1-yl]-ethyl)-benzoxazolinone]
Hypnotic activity (in words): strong hypnotic activity

Cn1c(=O)oc2cc(CCN3CCN(c4ccc(F)cc4)CC3)ccc21 [Compound 18, 3-Methyl-6-(-[4-(4-fluorophenyl)-piperazin-1-yl]-ethyl)-benzoxazolinone]
Hypnotic activity (in words): strong hypnotic activity
